# Reference: the supplement of paper PMC8728848
# The list shows a part of the results.
# Columns and labels:
# Assay in all cases: glycan array binding signal (z-score within array); higher = stronger binding
# Conditions in all cases: glycan notation: IUPAC condensed, linker removed
# [1] = biological target: GlcNAc(b1-3)Gal(b1-4)GlcNAc(b1-3)Gal(b1-4)GlcNAc(b1-3)Gal(b1-4)GlcNAc(b1-3)Gal(b1-4)GlcNAc(b1-2)[GlcNAc(b1-3)Gal(b1-4)GlcNAc(b1-3)Gal(b1-4)GlcNAc(b1-3)Gal(b1-4)GlcNAc(b1-3)Gal(b1-4)GlcNAc(b1-6)]Man(a1-6)[GlcNAc(b1-3)Gal(b1-4)GlcNAc(b1-3)Gal(b1-4)GlcNAc(b1-3)Gal(b1-4)GlcNAc(b1-3)Gal(b1-4)GlcNAc(b1-2)Man(a1-3)]Man(b1-4)GlcNAc(b1-4)[Fuc(a1-6)]GlcNAc
# In short: (§1)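 The Consortium for Functional Glycomics database supplied 3228 glycan arrays, of which those lacking an available protein sequence were dropped. The binding signal, a within-array Z-score, was averaged across arrays of the same protein sequence and across linkers. Negative scores can be read as non-binding.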
# [2] = biological target: GlcNAc(b1-3)Gal(b1-4)GlcNAc(b1-3)Gal(b1-4)GlcNAc(b1-3)GalNAc
# In short: as §1
# [3] = biological target: GlcNAc(b1-3)Gal(b1-4)GlcNAc(b1-3)GalNAc
# In short: as §1
# [4] = biological target: GlcNAc(b1-3)Gal(b1-4)GlcNAc(b1-3)[GlcNAc(b1-3)Gal(b1-4)GlcNAc(b1-3)]GalNAc
# In short: as §1
# [5] = biological target: GlcNAc(b1-3)Gal(b1-4)GlcNAc(b1-6)[Gal(b1-3)]GalNAc
# In short: as §1
# [6] = biological target: GlcNAc(b1-3)Gal(b1-4)GlcNAc(b1-6)[GlcNAc(b1-3)Gal(b1-3)]GalNAc
# In short: as §1
# [7] = biological target: GlcNAc(b1-3)Gal(b1-4)GlcNAc(b1-6)[GlcNAc(b1-3)]Gal(b1-4)GlcNAc
# In short: as §1
# GlcNAc(b1-3)GalNAc = biological target: GlcNAc(b1-3)GalNAc
# In short: as §1
# GlcNAc(b1-3)Man = biological target: GlcNAc(b1-3)Man
# In short: as §1
# [8] = biological target: GlcNAc(b1-3)[GlcNAc(b1-4)][GlcNAc(b1-6)]GlcNAc
# In short: as §1
# [9] = biological target: GlcNAc(b1-3)[GlcNAc(b1-6)]Gal(b1-4)GlcNAc
# In short: as §1
# [10] = biological target: GlcNAc(b1-3)[GlcNAc(b1-6)]GalNAc
# In short: as §1
# [11] = biological target: GlcNAc(b1-4)Gal(b1-4)GlcNAc
# In short: as §1
# GlcNAc(b1-4)GlcNAc = biological target: GlcNAc(b1-4)GlcNAc
# In short: as §1
# [12] = biological target: GlcNAc(b1-4)GlcNAc(b1-4)GlcNAc
# In short: as §1
# [13] = biological target: GlcNAc(b1-4)GlcNAc(b1-4)GlcNAc(b1-4)GlcNAc(b1-4)GlcNAc
# In short: as §1
# [14] = biological target: GlcNAc(b1-4)GlcNAc(b1-4)GlcNAc(b1-4)GlcNAc(b1-4)GlcNAc(b1-4)GlcNAc
# In short: as §1
# [15] = biological target: GlcNAc(b1-4)[GlcNAc(b1-6)]GalNAc
# In short: as §1
# [16] = biological target: GlcNAc(b1-6)Gal(b1-4)GlcNAc
# In short: as §1
# GlcNAc(b1-6)GalNAc = biological target: GlcNAc(b1-6)GalNAc
# In short: as §1
# [17] = biological target: GlcNAc6S(b1-3)Gal(b1-4)GlcNAc
# In short: as §1
# Kdn(a2-3)Gal(b1-3)GalNAc = biological target: Kdn(a2-3)Gal(b1-3)GalNAc
# In short: as §1
# Kdn(a2-3)Gal(b1-3)GlcNAc = biological target: Kdn(a2-3)Gal(b1-3)GlcNAc
# In short: as §1
# Kdn(a2-3)Gal(b1-4)Glc = biological target: Kdn(a2-3)Gal(b1-4)Glc
# In short: as §1
# Kdn(a2-3)Gal(b1-4)GlcNAc = biological target: Kdn(a2-3)Gal(b1-4)GlcNAc
# In short: as §1
# [18] = biological target: Kdn(a2-3)Gal(b1-4)[Fuc(a1-3)]GlcNAc
# In short: as §1
# Kdn(a2-6)Gal(b1-4)GlcNAc = biological target: Kdn(a2-6)Gal(b1-4)GlcNAc
# In short: as §1
# [19] = biological target: Man(a1-2)Man(a1-2)Man(a1-3)Man
# In short: as §1
# [20] = biological target: Man(a1-2)Man(a1-2)Man(a1-6)[Man(a1-3)]Man
# In short: as §1
# Man(a1-2)Man(a1-3)Man = biological target: Man(a1-2)Man(a1-3)Man
# In short: as §1
# [21] = biological target: Man(a1-2)Man(a1-3)[Man(a1-2)Man(a1-6)]Man
# In short: as §1
# [22] = biological target: Man(a1-2)Man(a1-3)[Man(a1-2)Man(a1-6)]Man(a1-6)[Man(a1-2)Man(a1-2)Man(a1-3)]Man
# In short: as §1
# [23] = biological target: Man(a1-2)Man(a1-3)[Man(a1-2)Man(a1-6)]Man(a1-6)[Man(a1-2)Man(a1-2)Man(a1-3)]Man(b1-4)GlcNAc(b1-4)GlcNAc
# In short: as §1
# [24] = biological target: Man(a1-2)Man(a1-3)[Man(a1-6)]Man(a1-6)[Man(a1-2)Man(a1-3)]Man(b1-4)GlcNAc(b1-4)GlcNAc
# In short: as §1
# [25] = biological target: Man(a1-2)Man(a1-6)[Man(a1-3)]Man(a1-6)[Man(a1-2)Man(a1-2)Man(a1-3)]Man
# In short: as §1
# [26] = biological target: Man(a1-2)Man(a1-6)[Man(a1-3)]Man(a1-6)[Man(a1-2)Man(a1-2)Man(a1-3)]Man(b1-4)GlcNAc(b1-4)GlcNAc
# In short: as §1
# Man(a1-3)[Man(a1-6)]Man = biological target: Man(a1-3)[Man(a1-6)]Man
# In short: as §1
binder,measurement,setting,value
"AT5G24760(45) (Arabidopsis thaliana), Q8LEB2 (protein) MSASSSSFEQPQVITCNAAVAWRAGEPLVMEEVEVSPPQPLEIRIKVVCTSLCRSDLSAWESQSLLPRIFGHEAAGIVESIGEGVTEFEKGDHVLAVFTGECGSCRHCISGKSNMCQVLGMERKGLMHSDQKTRFSIKGKPVYHYCAVSSFSEYTVVHSGCAVKVDPLAPLHKICLLSCGVAAGLGAAWNVADVQKGSSVVIFGLGTVGLSVAQGAKLRGAAQILGVDINPAKAEQAKTFGVTDFINSNDLSEPIPQVIKRMTGGGADFSFECVGDTGIATTALQSCSDGWGMTVTLGVPKAKPEVSAHYGLFLSGKSLKGTLFGGWKPKSDLPSLIDKYMNKEIMIDEFITHNLSFDEINKAFVLMREGKCLRCVLHMPK",glycan array binding signal (z-score),[1],0.881
same,glycan array binding signal (z-score),[2],-0.514
same,glycan array binding signal (z-score),[3],-0.998
same,glycan array binding signal (z-score),[4],-0.426
same,glycan array binding signal (z-score),[5],-0.295
same,glycan array binding signal (z-score),[6],-0.178
same,glycan array binding signal (z-score),[7],-0.616
same,glycan array binding signal (z-score),GlcNAc(b1-3)GalNAc,-0.519
same,glycan array binding signal (z-score),GlcNAc(b1-3)Man,1.28
same,glycan array binding signal (z-score),[8],0.138
same,glycan array binding signal (z-score),[9],0.495
same,glycan array binding signal (z-score),[10],0.1
same,glycan array binding signal (z-score),[11],2.53
same,glycan array binding signal (z-score),GlcNAc(b1-4)GlcNAc,0.352
same,glycan array binding signal (z-score),[12],0.93
same,glycan array binding signal (z-score),[13],0.118
same,glycan array binding signal (z-score),[14],0.72
same,glycan array binding signal (z-score),[15],-0.483
same,glycan array binding signal (z-score),[16],-0.147
same,glycan array binding signal (z-score),GlcNAc(b1-6)GalNAc,0.425
same,glycan array binding signal (z-score),[17],0.418
same,glycan array binding signal (z-score),Kdn(a2-3)Gal(b1-3)GalNAc,-0.157
same,glycan array binding signal (z-score),Kdn(a2-3)Gal(b1-3)GlcNAc,-0.232
same,glycan array binding signal (z-score),Kdn(a2-3)Gal(b1-4)Glc,-0.288
same,glycan array binding signal (z-score),Kdn(a2-3)Gal(b1-4)GlcNAc,0.348
same,glycan array binding signal (z-score),[18],1.43
same,glycan array binding signal (z-score),Kdn(a2-6)Gal(b1-4)GlcNAc,0.038
same,glycan array binding signal (z-score),[19],-0.914
same,glycan array binding signal (z-score),[20],2.01
same,glycan array binding signal (z-score),Man(a1-2)Man(a1-3)Man,0.085
same,glycan array binding signal (z-score),[21],-1.05
same,glycan array binding signal (z-score),[22],-0.963
same,glycan array binding signal (z-score),[23],0.124
same,glycan array binding signal (z-score),[24],-0.404
same,glycan array binding signal (z-score),[25],-0.772
same,glycan array binding signal (z-score),[26],2.16
same,glycan array binding signal (z-score),Man(a1-3)[Man(a1-6)]Man,-0.147

# Taken from the entries so far for reference:
binder,measurement,setting,value
"AT5G24760(45) (Arabidopsis thaliana), Q8LEB2 (protein) MSASSSSFEQPQVITCNAAVAWRAGEPLVMEEVEVSPPQPLEIRIKVVCTSLCRSDLSAWESQSLLPRIFGHEAAGIVESIGEGVTEFEKGDHVLAVFTGECGSCRHCISGKSNMCQVLGMERKGLMHSDQKTRFSIKGKPVYHYCAVSSFSEYTVVHSGCAVKVDPLAPLHKICLLSCGVAAGLGAAWNVADVQKGSSVVIFGLGTVGLSVAQGAKLRGAAQILGVDINPAKAEQAKTFGVTDFINSNDLSEPIPQVIKRMTGGGADFSFECVGDTGIATTALQSCSDGWGMTVTLGVPKAKPEVSAHYGLFLSGKSLKGTLFGGWKPKSDLPSLIDKYMNKEIMIDEFITHNLSFDEINKAFVLMREGKCLRCVLHMPK",glycan array binding signal (z-score),[4],-0.426
same,glycan array binding signal (z-score),[5],-0.295
